{"source": "patent US12343332B2", "about": "“Treatment of a bacterial vaginal infection” (Adamed Pharma S.A., priority 2017, dated 2025)", "key": {"[1]": {"test_system": "Gardnerella vaginalis ATCC 14018", "test": "MIC, macro dilution method for bacteria in a solid medium", "assay_type": "cell-based", "settings": "against Gardnerella vaginalis", "method": "(§1) Strains used in the study were Gardnerella vaginalis ATCC 14018, Atopobium vaginae ATCC BAA 55, Candida albicans ATCC 90028, and Candida [NT] 2001. […] To perform the assay, a pure, 48-hour strain reference culture was used, from which a bacterial suspension with a density of 1.0 McFarland in sterile saline was prepared. The suspension was plated onto Schaedler agar medium supplemented with 5% sheep blood (Becton Dickinson) and a test compound at the appropriate concentration. After incubation, the value MIC was read. Colony growth on the plate indicated no activity of the test compound at tested concentration. As the MIC value, the last lowest concentration as taken, at which there was no microbial growth. [table]"}, "[2]": {"test_system": "Atopobium vaginae ATCC BAA 55", "test": "MIC, macro dilution method for bacteria in a solid medium", "assay_type": "cell-based", "settings": "against Atopobium vaginae", "method": "as §1"}}, "note": "At least one compound was matched to its structure with a doubt left.", "data": [{"smiles": "CCC[C@@H]1C[C@@H](C(=O)N[C@@H]([C@H]2O[C@H](SC)[C@H](O)[C@@H](O)[C@H]2O)[C@H](C)Cl)N(C)C1", "note": "[Clindamycin]", "values": [{"measurement": "antibacterial activity (in words)", "setting": "[1]", "result": "antibacterial activity"}, {"measurement": "antibacterial activity (in words)", "setting": "[2]", "result": "antibacterial activity"}]}]}
